In patent publication US20240013853A1 (University of Washington, published 2024):
No constants are given. Whether binding was seen depends on the method and setting. Some entries that bind do so weakly or less than the wild type.

Tests used:
[1] = target: HALC18-6_265; test: single particle cryoEM; self-association of protomers
[2] = target: HALC2_065; test: X-ray crystal structure; self-association of protomers
[3] = target: HALC2_065; test: X-ray crystallography; self-association of protomers (homo-dimer)
[4] = target: HALC18-6_278; test: negative stain EM, 2D class averages and 3D maps; self-association of protomers (hexamer)

B1: HALC18-6_265 (protein, not shown: small tags and cut ends)
chain: NIKIPNPKDLSELLKKLGEGLKGLPNLKTLTLTLSNIELPEDADLSPGAEGLGEGLKGLPNLETLTFTISNIKIPNPKDLSELLKKLGEGLKGLPNLKTLTLTLSNIELPEDADLSPGAEGLGEGLKGLPNLETLTFTISNIKIPNPKDLSELLKKLGEGLKGLPNLKTLTLTLSNIELPEDADLSPGAEGLGEGLKGLPNLETLTFTIS
Question: How did the binding [1] turn out when B1 was run?
Answer: The binding was “binds”.

B2: HALC2_065 (protein)
chain: SEEEKPIVIDLNKTIERDGRKVKLVRATITVDPETNTITIDIEYEGGPITKEDLLEAFKLAASKL
Question: B2 was tested. Which binding [2] did it give?
Answer: Its binding is “binds”.

Question: What about the binding [3] of the same binder?
Answer: Its binding is “binds”.

B3: HALC18-6_278 (protein, not shown: small tags and cut ends)
chain: GERTDNPYYIGLLLKHLGEGLKKNKKLEKLKLDLPVFTTEPNPILEEGFKLLGEGLANIESPLDLEIKILGERTDNPYYIGLLLKHLGEGLKKNKKLEKLKLDLPVFTTEPNPILEEGFKLLGEGLANIESPLDLEIKILGERTDNPYYIGLLLKHLGEGLKKNKKLEKLKLDLPVFTTEPNPILEEGFKLLGEGLANIESPLDLEIKIL
Question: With B3 as the binder, how does the binding [4] read?
Answer: Its binding is “binds”.
